Experimental data taken from publication PMC8850591.
Numbering of substitutions follows the chain as printed. No constants are given. Whether binding was seen depends on the method and setting. In cells and extracts the contact can be indirect. Some binding calls cover weakened binding; strength is not graded here. For some assays here: Sequences can lack the tags named with a protein.

Chains of the proteins cited; added tags and fusions are not shown. Residues count along the entry.
UniProt Q07021, residues 74-282: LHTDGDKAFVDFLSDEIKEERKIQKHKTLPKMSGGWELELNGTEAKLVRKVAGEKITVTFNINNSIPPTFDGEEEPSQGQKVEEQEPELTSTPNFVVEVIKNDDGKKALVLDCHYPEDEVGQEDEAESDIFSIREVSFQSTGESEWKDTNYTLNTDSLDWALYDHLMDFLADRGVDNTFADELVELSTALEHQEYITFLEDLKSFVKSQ
UniProt P05198: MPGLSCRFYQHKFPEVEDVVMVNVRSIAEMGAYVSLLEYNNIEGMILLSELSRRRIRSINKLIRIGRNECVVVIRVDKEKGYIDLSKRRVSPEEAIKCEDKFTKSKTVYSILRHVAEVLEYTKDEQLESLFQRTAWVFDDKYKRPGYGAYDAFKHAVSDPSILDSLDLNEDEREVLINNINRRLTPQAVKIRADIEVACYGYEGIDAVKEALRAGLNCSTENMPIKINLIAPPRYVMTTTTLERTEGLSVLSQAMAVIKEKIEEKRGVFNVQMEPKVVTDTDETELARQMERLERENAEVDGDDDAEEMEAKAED

Assays:
[1] = biological target: T1, FLAG-tagged CHCHD10 WT (human) (UniProt Q8WYQ3); test: co-IP; CHCHD10 KO HeLa cells expressing FLAG-tagged CHCHD10 WT, S59L or G66V, with or without CCCP (8 h in the legend, 12 h in the text); immunoprecipitated with FLAG M2 resin, immunoblot
T1 sequence: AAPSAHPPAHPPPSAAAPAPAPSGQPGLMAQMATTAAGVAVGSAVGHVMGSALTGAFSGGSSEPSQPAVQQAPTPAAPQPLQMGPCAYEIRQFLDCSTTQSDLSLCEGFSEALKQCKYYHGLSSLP

[2] = biological target: T2, exogenous wild-type CHCHD2 (human) (UniProt Q9Y6H1); test: co-IP; CHCHD2 KO HeLa cells expressing exogenous CHCHD2 WT, T61I or R145Q, with or without CCCP (8 h in the legend, 12 h in the text); immunoprecipitated with anti-CHCHD2 and protein G magnetic beads, immunoblot
T2 sequence: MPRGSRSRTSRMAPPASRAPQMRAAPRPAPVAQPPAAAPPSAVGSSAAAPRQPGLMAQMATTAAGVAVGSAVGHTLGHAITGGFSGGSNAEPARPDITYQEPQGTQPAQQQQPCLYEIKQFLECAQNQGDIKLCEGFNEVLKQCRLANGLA

[3] = biological target: T3, FLAG-tagged CHCHD10-G66V (ALS-related mutant) (human) (UniProt Q8WYQ3); test: co-IP; CHCHD10 KO HeLa cells expressing FLAG-tagged CHCHD10 WT, S59L or G66V, with or without CCCP (8 h in the legend, 12 h in the text); immunoprecipitated with FLAG M2 resin, immunoblot
T3 sequence: T1 sequence with G50V

[4] = biological target: T4, FLAG-tagged CHCHD10-S59L (ALS-related mutant) (human) (UniProt Q8WYQ3); test: as above
T4 sequence: T1 sequence with S43L

[5] = biological target: T5, CHCHD2-R145Q (PD-related mutant) (human) (UniProt Q9Y6H1); test: co-IP; CHCHD2 KO HeLa cells expressing exogenous CHCHD2 WT, T61I or R145Q, with or without CCCP (8 h in the legend, 12 h in the text); immunoprecipitated with anti-CHCHD2 and protein G magnetic beads, immunoblot
T5 sequence: T2 sequence with R145Q

[6] = biological target: T6, CHCHD2-T61I (PD-related mutant) (human) (UniProt Q9Y6H1); test: as above
T6 sequence: T2 sequence with T61I

Measured: binding

P32, endogenous in HeLa cells (from UniProt Q07021 74-282)
binds: [1] | [2]

eIF2α, endogenous in HeLa cells (from UniProt P05198 1-315)
binds: all assays above
